According to article PMC12651572 (Cells, 2025):
No constants are given. Whether binding was seen depends on the method and setting. Some entries that bind do so weakly or less than the wild type.

Protein sequences, listed by entry. Tags and fused reporters are not part of them. Lines headed by an entry give the natural chain unless they say otherwise; changes in a name come on top. Residues count along the entry.
UniProt Q9HC73: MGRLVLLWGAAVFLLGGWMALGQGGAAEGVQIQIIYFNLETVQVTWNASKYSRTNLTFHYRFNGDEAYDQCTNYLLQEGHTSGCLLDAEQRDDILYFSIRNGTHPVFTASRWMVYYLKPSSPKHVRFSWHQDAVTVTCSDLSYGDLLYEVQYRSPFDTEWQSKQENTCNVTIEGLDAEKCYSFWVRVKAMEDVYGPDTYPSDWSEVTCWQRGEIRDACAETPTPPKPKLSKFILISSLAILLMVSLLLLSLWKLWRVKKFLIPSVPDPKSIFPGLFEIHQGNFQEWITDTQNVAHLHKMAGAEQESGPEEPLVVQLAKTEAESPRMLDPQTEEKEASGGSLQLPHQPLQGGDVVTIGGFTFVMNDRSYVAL
UniProt P16871: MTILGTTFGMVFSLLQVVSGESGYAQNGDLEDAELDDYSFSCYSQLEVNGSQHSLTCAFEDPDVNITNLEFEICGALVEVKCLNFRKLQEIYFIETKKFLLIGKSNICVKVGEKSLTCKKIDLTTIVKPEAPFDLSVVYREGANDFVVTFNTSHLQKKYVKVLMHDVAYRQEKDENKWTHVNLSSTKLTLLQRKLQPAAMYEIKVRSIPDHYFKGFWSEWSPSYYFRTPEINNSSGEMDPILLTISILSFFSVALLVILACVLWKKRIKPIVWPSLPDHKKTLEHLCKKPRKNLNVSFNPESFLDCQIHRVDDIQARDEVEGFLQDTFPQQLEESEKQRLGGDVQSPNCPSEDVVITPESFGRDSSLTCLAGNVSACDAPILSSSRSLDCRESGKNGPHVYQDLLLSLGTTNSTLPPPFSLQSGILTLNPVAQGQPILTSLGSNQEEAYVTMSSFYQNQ
UniProt Q969D9, residues 29-159: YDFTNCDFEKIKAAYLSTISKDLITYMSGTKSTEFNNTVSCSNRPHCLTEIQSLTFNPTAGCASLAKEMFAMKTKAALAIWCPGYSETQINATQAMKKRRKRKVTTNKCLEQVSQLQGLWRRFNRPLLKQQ

Target: Human TSLPR-IL-7Rα receptor complex on transfected cells (human) (UniProt Q9HC73+P16871)
Assay: flow cytometry on cells; 10 ng/mL biotinylated human TSLP on cells co-transfected with the TSLP receptor chains, 2 h; PE-streptavidin; only the binder purified

- binding: binds
Substance: Biotinylated human TSLP (from UniProt Q969D9 29-159) (ligand)
